# Laboratory results reported in the supplement of paper PMC11732987, “Enantioselective OTUD7B fragment discovery through chemoproteomics screening and high-throughput optimisation” (Communications Chemistry, 2025).
# By UniProt entry, the sequences of proteins in these tests, tags left out. Where a name states a change or a piece, a line headed by the entry shows the natural chain unless it says otherwise.
# UniProt Q9BQG0: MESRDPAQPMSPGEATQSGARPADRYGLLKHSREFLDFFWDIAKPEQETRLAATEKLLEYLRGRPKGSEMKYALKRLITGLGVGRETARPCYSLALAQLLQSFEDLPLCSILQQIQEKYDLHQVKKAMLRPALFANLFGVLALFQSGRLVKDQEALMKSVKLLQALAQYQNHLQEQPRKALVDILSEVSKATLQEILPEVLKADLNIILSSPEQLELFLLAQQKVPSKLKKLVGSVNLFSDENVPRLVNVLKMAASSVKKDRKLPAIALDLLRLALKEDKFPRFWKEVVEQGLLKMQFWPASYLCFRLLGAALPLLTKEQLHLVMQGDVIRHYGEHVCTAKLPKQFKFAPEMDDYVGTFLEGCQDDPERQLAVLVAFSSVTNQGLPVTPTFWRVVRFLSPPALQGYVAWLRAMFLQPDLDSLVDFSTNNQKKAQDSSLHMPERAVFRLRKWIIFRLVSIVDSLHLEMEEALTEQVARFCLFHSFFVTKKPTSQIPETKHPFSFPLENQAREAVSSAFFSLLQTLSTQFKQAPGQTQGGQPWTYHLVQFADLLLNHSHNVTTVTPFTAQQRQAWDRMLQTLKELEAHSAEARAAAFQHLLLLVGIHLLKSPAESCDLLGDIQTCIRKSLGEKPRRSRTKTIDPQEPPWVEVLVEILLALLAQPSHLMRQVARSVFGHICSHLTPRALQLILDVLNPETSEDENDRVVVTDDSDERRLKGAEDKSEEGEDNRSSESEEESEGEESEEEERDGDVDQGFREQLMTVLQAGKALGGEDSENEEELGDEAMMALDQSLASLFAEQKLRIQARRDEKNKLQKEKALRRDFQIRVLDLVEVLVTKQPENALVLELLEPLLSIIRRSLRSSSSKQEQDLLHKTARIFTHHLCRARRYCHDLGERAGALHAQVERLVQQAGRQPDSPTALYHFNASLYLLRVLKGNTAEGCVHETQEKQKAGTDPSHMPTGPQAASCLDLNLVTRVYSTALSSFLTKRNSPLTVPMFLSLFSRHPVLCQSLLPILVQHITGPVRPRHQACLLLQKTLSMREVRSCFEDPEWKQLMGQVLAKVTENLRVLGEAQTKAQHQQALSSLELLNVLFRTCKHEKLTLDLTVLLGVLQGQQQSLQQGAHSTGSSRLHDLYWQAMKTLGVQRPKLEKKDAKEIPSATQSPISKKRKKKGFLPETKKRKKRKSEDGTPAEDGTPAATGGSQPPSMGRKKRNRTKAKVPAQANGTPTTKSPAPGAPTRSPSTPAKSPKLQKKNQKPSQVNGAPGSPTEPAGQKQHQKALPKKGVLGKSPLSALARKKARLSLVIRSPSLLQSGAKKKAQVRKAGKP
# UniProt P54920: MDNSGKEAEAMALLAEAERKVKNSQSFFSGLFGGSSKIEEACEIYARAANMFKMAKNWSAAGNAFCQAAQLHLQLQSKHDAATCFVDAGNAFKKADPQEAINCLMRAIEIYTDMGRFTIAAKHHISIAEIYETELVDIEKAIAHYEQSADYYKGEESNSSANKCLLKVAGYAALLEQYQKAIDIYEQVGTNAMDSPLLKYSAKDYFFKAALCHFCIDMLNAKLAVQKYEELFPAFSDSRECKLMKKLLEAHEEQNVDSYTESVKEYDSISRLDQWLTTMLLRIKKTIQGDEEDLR
# UniProt Q9NVV4: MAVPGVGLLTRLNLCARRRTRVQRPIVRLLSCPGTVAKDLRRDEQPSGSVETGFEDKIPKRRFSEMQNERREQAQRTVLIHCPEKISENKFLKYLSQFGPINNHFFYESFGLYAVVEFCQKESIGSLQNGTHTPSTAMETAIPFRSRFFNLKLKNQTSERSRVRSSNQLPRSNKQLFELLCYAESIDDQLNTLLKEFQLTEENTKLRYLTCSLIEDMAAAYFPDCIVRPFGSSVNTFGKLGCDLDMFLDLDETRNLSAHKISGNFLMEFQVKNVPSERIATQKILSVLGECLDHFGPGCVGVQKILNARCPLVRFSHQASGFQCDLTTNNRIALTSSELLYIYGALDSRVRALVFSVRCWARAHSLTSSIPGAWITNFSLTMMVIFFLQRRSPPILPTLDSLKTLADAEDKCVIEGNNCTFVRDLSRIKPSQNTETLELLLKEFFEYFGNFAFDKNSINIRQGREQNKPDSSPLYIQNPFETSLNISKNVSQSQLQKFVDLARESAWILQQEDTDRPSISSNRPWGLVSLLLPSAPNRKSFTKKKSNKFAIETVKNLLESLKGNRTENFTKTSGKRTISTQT
# UniProt Q4G0N4: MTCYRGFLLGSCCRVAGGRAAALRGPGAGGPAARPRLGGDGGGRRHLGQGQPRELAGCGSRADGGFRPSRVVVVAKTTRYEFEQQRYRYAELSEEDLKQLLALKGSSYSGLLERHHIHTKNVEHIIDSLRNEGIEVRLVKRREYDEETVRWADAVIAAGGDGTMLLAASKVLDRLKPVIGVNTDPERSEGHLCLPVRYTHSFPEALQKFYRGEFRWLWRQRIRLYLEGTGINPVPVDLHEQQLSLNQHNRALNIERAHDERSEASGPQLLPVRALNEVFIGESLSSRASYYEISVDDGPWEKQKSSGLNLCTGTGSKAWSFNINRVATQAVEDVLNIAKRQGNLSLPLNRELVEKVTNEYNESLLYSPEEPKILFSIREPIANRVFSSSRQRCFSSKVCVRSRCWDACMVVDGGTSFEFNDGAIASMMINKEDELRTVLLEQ
# UniProt O94776: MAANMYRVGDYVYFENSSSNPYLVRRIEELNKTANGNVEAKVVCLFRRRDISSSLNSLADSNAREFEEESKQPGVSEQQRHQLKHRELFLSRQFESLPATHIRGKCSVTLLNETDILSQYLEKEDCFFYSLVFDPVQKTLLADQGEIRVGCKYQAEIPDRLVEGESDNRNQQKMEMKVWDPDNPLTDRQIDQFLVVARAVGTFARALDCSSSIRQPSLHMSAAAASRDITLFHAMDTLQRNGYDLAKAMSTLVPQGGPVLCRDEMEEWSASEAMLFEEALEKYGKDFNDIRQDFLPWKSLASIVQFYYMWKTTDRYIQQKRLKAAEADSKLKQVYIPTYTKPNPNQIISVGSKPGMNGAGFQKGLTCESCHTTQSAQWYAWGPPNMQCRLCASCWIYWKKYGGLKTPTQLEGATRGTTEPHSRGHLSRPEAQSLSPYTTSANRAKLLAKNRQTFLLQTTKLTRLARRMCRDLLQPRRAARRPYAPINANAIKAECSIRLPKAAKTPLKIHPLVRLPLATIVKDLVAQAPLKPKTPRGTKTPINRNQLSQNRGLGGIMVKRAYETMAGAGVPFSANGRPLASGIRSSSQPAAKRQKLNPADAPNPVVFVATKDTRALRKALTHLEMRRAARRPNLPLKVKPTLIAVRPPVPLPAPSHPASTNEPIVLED
# UniProt Q9NYA4: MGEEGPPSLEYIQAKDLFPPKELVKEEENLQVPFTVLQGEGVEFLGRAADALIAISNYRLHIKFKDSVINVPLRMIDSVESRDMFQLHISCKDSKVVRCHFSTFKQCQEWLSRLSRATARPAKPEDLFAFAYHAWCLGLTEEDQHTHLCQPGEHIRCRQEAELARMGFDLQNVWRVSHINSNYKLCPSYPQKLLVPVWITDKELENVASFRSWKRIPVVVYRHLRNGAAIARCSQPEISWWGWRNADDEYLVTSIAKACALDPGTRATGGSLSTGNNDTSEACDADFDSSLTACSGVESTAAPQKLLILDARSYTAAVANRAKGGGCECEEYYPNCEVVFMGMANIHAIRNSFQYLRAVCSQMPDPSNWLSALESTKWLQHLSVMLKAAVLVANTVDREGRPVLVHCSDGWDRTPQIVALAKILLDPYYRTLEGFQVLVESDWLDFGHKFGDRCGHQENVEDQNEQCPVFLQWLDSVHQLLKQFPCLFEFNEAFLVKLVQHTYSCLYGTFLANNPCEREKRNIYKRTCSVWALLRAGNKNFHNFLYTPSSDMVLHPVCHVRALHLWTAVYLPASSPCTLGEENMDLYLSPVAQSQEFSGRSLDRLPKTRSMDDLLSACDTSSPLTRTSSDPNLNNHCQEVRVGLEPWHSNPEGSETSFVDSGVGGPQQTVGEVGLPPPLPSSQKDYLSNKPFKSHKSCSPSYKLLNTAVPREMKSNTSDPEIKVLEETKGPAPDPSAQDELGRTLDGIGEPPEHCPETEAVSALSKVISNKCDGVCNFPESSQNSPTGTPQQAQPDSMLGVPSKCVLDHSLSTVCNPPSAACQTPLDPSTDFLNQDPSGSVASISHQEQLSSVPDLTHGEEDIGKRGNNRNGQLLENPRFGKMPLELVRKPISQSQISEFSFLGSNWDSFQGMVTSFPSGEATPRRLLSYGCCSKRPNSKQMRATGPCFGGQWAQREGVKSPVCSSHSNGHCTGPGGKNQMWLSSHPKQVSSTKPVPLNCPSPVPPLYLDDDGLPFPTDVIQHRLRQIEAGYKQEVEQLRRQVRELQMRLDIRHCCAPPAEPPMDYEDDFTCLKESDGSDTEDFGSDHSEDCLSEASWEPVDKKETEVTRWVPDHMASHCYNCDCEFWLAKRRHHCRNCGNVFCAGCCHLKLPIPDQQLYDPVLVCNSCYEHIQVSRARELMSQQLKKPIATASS
# This is one part of the list. The data scatter; read single values as rough.
# Key:
# [1] = compound: ClCC(=O)N[C@@H]1CCCc2ccccc12; assay: log2 mean competition ratio of IA-DTB cysteine labelling (DMSO/compound) (log2 ratio); higher = stronger cysteine engagement by compound; conditions: treatment time: 4 h, cell line lysate: HEK293T
# Description: (§1)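 IA-DTB competitive cysteine chemoproteomics in HEK293T RIPA lysate. Lysates were treated with compound 29 or 30 at 50 or 200 µM for 4 h, then IA-DTB (500 µM, 1 h), trypsin-digested, NeutrAvidin-enriched and analysed by diaPASEF. Competition ratio = intensity DMSO / intensity compound (n=4 treated, n=64 DMSO); binding: mean log2 CR ≥ 1 and p ≤ 0.05 plus QC filters. Target is the cysteine site.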
# [2] = compound: ClCC(=O)N[C@H]1CCCc2ccccc12; assay: as above; conditions: treatment time: 4 h, cell line lysate: HEK293T
# Description: as §1
Target,log2 mean competition ratio ([1]; 50 µM),log2 mean competition ratio ([1]; 200 µM),log2 mean competition ratio ([2]; 50 µM),log2 mean competition ratio ([2]; 200 µM)
MYBBP1A C1046 (UniProt Q9BQG0),0.0458,-0.234,-0.0298,-0.0319
NAPA C103 (UniProt P54920),0.143,-0.246,0.148,-0.16
MTPAP C82 (UniProt Q9NVV4),-0.145,-0.469,0.447,-0.211
NADK2 C193 (UniProt Q4G0N4),0.134,-0.105,0.0216,-0.0595
MTA2 C209 (UniProt O94776),-0.106,0.115,0.0641,0.00164
MTMR4 C698 (UniProt Q9NYA4),-0.209,-0.253,-0.129,0.0365
